This note sets out measurements from PubChem BioAssay AID796 (Columbia University Molecular Screening Center, 2007).

Molecules are shown by their SMILES. The list shows a part of the results. Some results for these compounds are left out of this collection, so the calls shown say nothing about other tests.

The assay is described as follows: inhibitors of IL-1B driven NFkB p65 nuclear import, primary screen, imaging, HUVEC, IL-1B stimulus, high-content imaging (AID 796). The following applies: HUVEC IL-1B NFkB p65 nuclear translocation imaging; cells passing quality filter; at 2 µM; stronger effect = lower value.
In the case of `CC(C)N1C(=O)CC2(CCN(CCOC(=O)C(O)(c3ccccc3)c3ccccc3)CC2)C1=O`, the cell count came to 129.

The compound `O=C(OC1CN2CCC1CC2)C(CO)(c1ccccc1)c1ccccc1` (stereo not drawn) showed a cell count of 131.

In the case of `CN(C)c1cccc(C(=O)NCC2(N(C)C)CCCCC2)c1`, the cell count was 105.
